What was measured:
[1] = tested on: PC-3 (human prostate carcinoma); experiment: MTT assay, PC-3; type: cell-based; details: IC50 HDF / IC50 PC-3
Description: (§1) All the cell lines and mediums were obtained from the American Type Culture Collection (ATCC) supplied by LGC-Standards (Lomianki, Poland). Human cancer cell lines were cultured as follows: HeLa (human cervix carcinoma) and KB (human oral squamous carcinoma) lines were cultured in DMEM (Dulbecco’s Modified Eagle’s Medium); MCF-7 (human breast carcinoma) and A-549 (human lung carcinoma) were cultured in RPMI 1640 medium; PC-3 (human prostate carcinoma) was cultured in F-12K medium; SKOV-3 (human ovarian cystadenocarcinoma) was cultured in McCoy’s modified medium; HDF (human normal dermal fibroblasts) was cultured in Fibroblast Basal Medium. Each medium was supplemented with 10% fetal bovine serum, 1% L- glutamine and 1% penicillin/streptomycin solution. The cell lines were kept in an incubator at 37 °C.
(§2) All the tested cell lines (HeLa, KB, MCF-7, A-549, PC-3, SKOV-3 and HDF) were subjected to MTT assay. In short, this assay is based on the reaction between mitochondria enzymes (dehydrogenases) of tested cell lines and 3-(4,5-dimethylthiazol-2-yl)-2,5-diphenyltetrazolium bromide (MTT). The final product of this reaction gives violet formazan crystals. The number of live cells is proportional to the amount of formazan and is represented by the violet dye reagent. The details of the experiments are given in [19].

[2] = tested on: SKOV-3 (human ovarian carcinoma); experiment: MTT assay, SKOV-3; type: cell-based; details: IC50 HDF / IC50 SKOV-3
Description: as §1, §2

| SMILES | Selectivity index (SI), PC-3 [1] | Selectivity index (SI), SKOV-3 [2] |
| --- | --- | --- |
| CC(=O)OC1CCC2(C)C(CCC3(C)C2CCC2C4C5OCC4(CCC5(C)C)CCC23C)C1(C)C (stereo not shown) [3b, 3-O-Acetylallobetulin] | 1.19 | 1.17 |
| C=C(C)[C@@H]1CC[C@]2(C)CC[C@]3(C)[C@H](CC[C@@H]4[C@@]5(C)CC[C@H](OC(C)=O)C(C)(C)[C@@H]5CC[C@]43C)[C@@H]12 [6b, 3-O-Acetylolupeol] | 1.58 | 1.66 |

Source: PMC12196235, “Enhancing the Pharmacological Properties of Triterpenes Through Acetylation: An Anticancer and Antioxidant Perspective” (Molecules, 2025)
